# Source: PMC7819943, “Rice protein-binding microarrays: a tool to detect cis-acting elements near promoter regions in rice”
# This is one part of the list.
# Target: T1, OsSMF1 (Oryza sativa, UniProt Q6ZLB0 1-436)
# T1 sequence: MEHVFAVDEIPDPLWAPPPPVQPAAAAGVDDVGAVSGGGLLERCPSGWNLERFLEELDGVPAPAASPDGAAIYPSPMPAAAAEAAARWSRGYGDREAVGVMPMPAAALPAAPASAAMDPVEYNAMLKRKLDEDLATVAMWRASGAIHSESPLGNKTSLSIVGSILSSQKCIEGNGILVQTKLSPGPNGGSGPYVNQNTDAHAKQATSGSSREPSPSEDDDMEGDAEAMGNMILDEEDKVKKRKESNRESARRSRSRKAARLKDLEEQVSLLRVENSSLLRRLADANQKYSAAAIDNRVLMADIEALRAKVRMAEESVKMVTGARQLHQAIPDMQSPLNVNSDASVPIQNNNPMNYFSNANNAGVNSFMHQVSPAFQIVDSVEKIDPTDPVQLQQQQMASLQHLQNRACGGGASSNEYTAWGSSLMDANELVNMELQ
# Assay: protein-binding microarray (RPBM); PBS, 2% BSA, 51.3 ng/ul salmon testes DNA, 50 uM zinc acetate, 200 nM TF, 25 C, 1 h; high values mean tight binding
# Settings: protein: recombinant; tags: N-terminal polyhistidine and DsRed monomer fusion (pET32a); chain copies: 2; label: CyDye5-dUTP incorporated in the synthesized complementary strand; 3' TTTTT single-stranded linker to array surface; dsDNA, one strand shown
# Method in brief: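 A custom Agilent array was converted to double-stranded form by primer extension with Cy5-dUTP and blocked with 2% BSA. Protein at 200 nM in PBS with 2% BSA, salmon testes DNA and 50 µM zinc acetate was applied for 1 h at 25 °C, followed by washing. The proteins were polyhistidine–DsRed N-terminal fusions of transcription factors, expressed in E. coli BL21-CodonPlus and Ni–NTA-purified. The binding signal is per-feature fluorescence intensity (arbitrary units) from an Axon 4000B scanner.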
row,Sequence,binding signal
1,AAAAGAAGAGAAAGAGGCGTCATCAACTTTAGTAGAATCTCGGAGTCACCTAGTGCAG,4790 fluorescence intensity (a.u.)
2,TGTGCTTGCACAGGAAGATGCAACTAACAGTGAAGTGATGCGGAGTCACCTAGTGCAG,13400 fluorescence intensity (a.u.)
3,AGTGAAGGTAATTATCTGCCGCACTGCTGATGCTAGCAAACGGAGTCACCTAGTGCAG,3500 fluorescence intensity (a.u.)
4,ACTTCCAAGGCTGTTTGTCGTGGGTCCACATGTCAGTTACCGGAGTCACCTAGTGCAG,4650 fluorescence intensity (a.u.)
5,AGTACAGTTACAATGCAATTACACTTCAACTATACTATAGCGGAGTCACCTAGTGCAG,5920 fluorescence intensity (a.u.)
6,CACGAACGAACGCACGCGCGATGCTTCCGATGATCGAAGCCGGAGTCACCTAGTGCAG,3920 fluorescence intensity (a.u.)
7,TTGCCAAATATGCCATACGTCATCCAATGGTGGTGACGATCGGAGTCACCTAGTGCAG,5550 fluorescence intensity (a.u.)
8,ATATTTAATTAACCATACGTTACCATTTATGTGACAGAAGCGGAGTCACCTAGTGCAG,3190 fluorescence intensity (a.u.)
9,TGCCTAGCGCGAGGATGATGCGGCAAAGTAGGGCTTCGTGCGGAGTCACCTAGTGCAG,3700 fluorescence intensity (a.u.)
10,TTGCAACGCTCAACAGACAAGAACAAACGACAAACGCACTCGGAGTCACCTAGTGCAG,38100 fluorescence intensity (a.u.)
11,GAACGGCCGTCTGCCACGTCATTTTCGCCGCCCTCTGAGACGGAGTCACCTAGTGCAG,18100 fluorescence intensity (a.u.)
12,TAGTATCTTGCAAATGACTGTCTAATACCTGGCCGTCTGACGGAGTCACCTAGTGCAG,3310 fluorescence intensity (a.u.)
13,GGGCCGCGGTGACGTCGGAAGCTGCCCCGCGCGCGCCAGGCGGAGTCACCTAGTGCAG,3760 fluorescence intensity (a.u.)
14,GCGCCGTGCGCGTGCGCTGTCGTCACCGCCCACGAGAGGACGGAGTCACCTAGTGCAG,3670 fluorescence intensity (a.u.)
15,TATGAACAAGCCGTGACGACGTGAGTGAAGCGTGGCGTGGCGGAGTCACCTAGTGCAG,3530 fluorescence intensity (a.u.)
16,GCCACCCAGAGACGCCTGTTCCACGTGACAAACTTCCCAACGGAGTCACCTAGTGCAG,5450 fluorescence intensity (a.u.)
17,CTGTTTCATTTTACTTGTCATTTATGACGTGATGACACAGCGGAGTCACCTAGTGCAG,4840 fluorescence intensity (a.u.)
18,CCGGACTCAGACAGCCTTTGTTACTCAGACAGCGACTCCCCGGAGTCACCTAGTGCAG,3290 fluorescence intensity (a.u.)
19,TGACCCTTAATTTGGTAGCCGTACAGTGACAGCCCATCTCCGGAGTCACCTAGTGCAG,4020 fluorescence intensity (a.u.)
20,TTCTTCCTCCGTCAGTTCATCATCTCTCTGTGTGTGTTTTCGGAGTCACCTAGTGCAG,3570 fluorescence intensity (a.u.)
21,CACCCTTAAATCATATATGTGGTTTTAATATTTGGGGATGCGGAGTCACCTAGTGCAG,33200 fluorescence intensity (a.u.)

row,Sequence,binding signal
1,CAAGCTGTGCATGACTCTGTACTGGAGTACCCTGTTCGCACGGAGTCACCTAGTGCAG,3240 fluorescence intensity (a.u.)
2,GGGAGGGAGGGGCTCGCTGTCTCATCACTCTGTAACCGATCGGAGTCACCTAGTGCAG,3510 fluorescence intensity (a.u.)
3,CCTCCCACCTATTAACCGAAGCACGGTATTACACCCTCGACGGAGTCACCTAGTGCAG,30400 fluorescence intensity (a.u.)
4,CCGGCGGCGCCGACGGCAGGTGGCTCGACGACGTGGCCGCCGGAGTCACCTAGTGCAG,3380 fluorescence intensity (a.u.)
5,TTTAAGTGGCATTGTCTGTCACCTCCTTCTCCCACTTGTTCGGAGTCACCTAGTGCAG,3600 fluorescence intensity (a.u.)
6,GAGGATAGCCTCTGGGCAAGGAGGTTGGCATCTTCTTATGCGGAGTCACCTAGTGCAG,3250 fluorescence intensity (a.u.)
7,TTGCGACTGCTATGTCACCTACTGTGACATCACTACCCAACGGAGTCACCTAGTGCAG,6170 fluorescence intensity (a.u.)
8,ATTCCCATTGTCATGCTGCCACTAATCTGATTGTGTCACTCGGAGTCACCTAGTGCAG,4490 fluorescence intensity (a.u.)
9,CACAGCCACCAGTACTGCCTATATATACACGCTCTCTCCACGGAGTCACCTAGTGCAG,23900 fluorescence intensity (a.u.)
10,CTCAGCCTGACAAAACCTGACGTGTTTCGCGTAGCAACCTCGGAGTCACCTAGTGCAG,6720 fluorescence intensity (a.u.)
11,GTGATGTTGTGCGTGTAGTGATGTGTGTACATGTACGCTTCGGAGTCACCTAGTGCAG,3910 fluorescence intensity (a.u.)
12,GACGTTTTCCGAGGAATGACGCTAACTTTCGATAGCTAGGCGGAGTCACCTAGTGCAG,33600 fluorescence intensity (a.u.)
13,CGCCACCATTGACAGCGAACCGTTGGATCAAATTTAGACGCGGAGTCACCTAGTGCAG,3800 fluorescence intensity (a.u.)
14,GTTTGTGTTAACTTGACCTGACAAGTCACCTAGAGTCAAACGGAGTCACCTAGTGCAG,5090 fluorescence intensity (a.u.)
15,AACAGCTAGTCAAACGACGAATGCGAGAGTGCCACGTGTCCGGAGTCACCTAGTGCAG,22800 fluorescence intensity (a.u.)
16,TTAGTGGTGTACGTCATATATGAAACTAGGTGATTCCCCACGGAGTCACCTAGTGCAG,5180 fluorescence intensity (a.u.)
17,TGGACTCTGTAAATGACATCATCAAGTTCTGTGAAAATAGCGGAGTCACCTAGTGCAG,5220 fluorescence intensity (a.u.)
18,TTTGGCTATTTATACGTACCGCGGGAGCCTGTGTGCAGAGCGGAGTCACCTAGTGCAG,3140 fluorescence intensity (a.u.)
19,GGCAAACCAGTAACTAGAAACCACGTTATTCAAAAGCATTCGGAGTCACCTAGTGCAG,3940 fluorescence intensity (a.u.)
20,GCTGCTGCTGCTTTTGCTCTTTGTGTGTTCATGTGAGGAGCGGAGTCACCTAGTGCAG,3800 fluorescence intensity (a.u.)
21,CGTAATATAGGTGTGTAAAAGAAAATCCATATCACGTTCCCGGAGTCACCTAGTGCAG,28100 fluorescence intensity (a.u.)

# 4 entries drawn at random from the list so far, as already listed:
row,Sequence,binding signal
12,TAGTATCTTGCAAATGACTGTCTAATACCTGGCCGTCTGACGGAGTCACCTAGTGCAG,3310 fluorescence intensity (a.u.)
10,TTGCAACGCTCAACAGACAAGAACAAACGACAAACGCACTCGGAGTCACCTAGTGCAG,38100 fluorescence intensity (a.u.)
11,GTGATGTTGTGCGTGTAGTGATGTGTGTACATGTACGCTTCGGAGTCACCTAGTGCAG,3910 fluorescence intensity (a.u.)
21,CGTAATATAGGTGTGTAAAAGAAAATCCATATCACGTTCCCGGAGTCACCTAGTGCAG,28100 fluorescence intensity (a.u.)
